# Laboratory results: the supplement of paper PMC10032668
# Sequences of proteins named here, by UniProt entry; tags and fusion partners are left off.
# INCENP, Q9NQS7, UniProt Q9NQS7, whole entry: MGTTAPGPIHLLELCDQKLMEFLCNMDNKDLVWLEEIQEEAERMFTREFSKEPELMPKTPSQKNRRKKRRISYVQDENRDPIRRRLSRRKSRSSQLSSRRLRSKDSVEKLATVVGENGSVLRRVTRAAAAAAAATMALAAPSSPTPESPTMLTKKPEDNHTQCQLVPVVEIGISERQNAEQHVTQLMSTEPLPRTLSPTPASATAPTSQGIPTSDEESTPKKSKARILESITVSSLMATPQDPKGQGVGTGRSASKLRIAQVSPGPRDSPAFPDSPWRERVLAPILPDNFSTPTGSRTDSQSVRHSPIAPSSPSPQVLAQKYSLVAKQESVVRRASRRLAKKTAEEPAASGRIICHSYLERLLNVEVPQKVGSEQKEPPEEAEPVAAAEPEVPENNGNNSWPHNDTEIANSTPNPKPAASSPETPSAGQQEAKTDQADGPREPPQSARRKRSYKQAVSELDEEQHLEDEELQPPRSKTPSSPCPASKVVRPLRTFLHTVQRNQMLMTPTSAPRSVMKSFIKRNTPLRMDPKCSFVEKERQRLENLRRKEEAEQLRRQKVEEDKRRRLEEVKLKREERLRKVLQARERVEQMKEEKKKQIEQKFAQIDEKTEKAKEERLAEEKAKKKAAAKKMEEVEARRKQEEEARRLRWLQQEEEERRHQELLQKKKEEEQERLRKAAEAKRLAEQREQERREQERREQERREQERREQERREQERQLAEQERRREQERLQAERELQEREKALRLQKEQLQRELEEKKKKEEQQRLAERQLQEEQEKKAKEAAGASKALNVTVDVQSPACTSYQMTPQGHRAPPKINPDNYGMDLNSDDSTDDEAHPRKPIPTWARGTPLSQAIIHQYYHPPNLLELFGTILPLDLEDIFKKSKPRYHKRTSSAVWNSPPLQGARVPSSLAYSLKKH
# KHDRBS1, Q07666, UniProt Q07666, whole entry: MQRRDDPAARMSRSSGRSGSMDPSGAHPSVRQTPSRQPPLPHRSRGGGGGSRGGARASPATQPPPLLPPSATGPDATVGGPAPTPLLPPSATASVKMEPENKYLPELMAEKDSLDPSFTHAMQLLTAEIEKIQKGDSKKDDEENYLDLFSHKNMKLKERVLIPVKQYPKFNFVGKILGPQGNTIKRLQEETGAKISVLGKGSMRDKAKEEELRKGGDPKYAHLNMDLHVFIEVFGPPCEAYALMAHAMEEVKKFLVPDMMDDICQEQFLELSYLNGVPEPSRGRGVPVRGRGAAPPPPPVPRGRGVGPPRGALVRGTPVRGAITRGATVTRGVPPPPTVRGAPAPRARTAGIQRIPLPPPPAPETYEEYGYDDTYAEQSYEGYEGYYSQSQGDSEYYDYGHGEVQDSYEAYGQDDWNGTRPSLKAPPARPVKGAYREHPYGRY
# LRPAP1, P30533, UniProt P30533, whole entry: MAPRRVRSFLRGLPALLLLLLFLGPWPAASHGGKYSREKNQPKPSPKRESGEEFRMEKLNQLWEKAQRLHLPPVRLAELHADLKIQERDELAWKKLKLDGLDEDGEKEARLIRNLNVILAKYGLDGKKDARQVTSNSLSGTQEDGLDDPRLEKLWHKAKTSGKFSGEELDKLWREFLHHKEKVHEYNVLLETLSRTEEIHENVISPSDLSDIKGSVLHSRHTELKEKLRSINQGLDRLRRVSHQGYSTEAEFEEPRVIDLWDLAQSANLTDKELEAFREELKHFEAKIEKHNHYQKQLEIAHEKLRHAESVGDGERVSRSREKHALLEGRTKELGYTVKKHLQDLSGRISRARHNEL
# MAPK1, P28482, UniProt P28482, whole entry: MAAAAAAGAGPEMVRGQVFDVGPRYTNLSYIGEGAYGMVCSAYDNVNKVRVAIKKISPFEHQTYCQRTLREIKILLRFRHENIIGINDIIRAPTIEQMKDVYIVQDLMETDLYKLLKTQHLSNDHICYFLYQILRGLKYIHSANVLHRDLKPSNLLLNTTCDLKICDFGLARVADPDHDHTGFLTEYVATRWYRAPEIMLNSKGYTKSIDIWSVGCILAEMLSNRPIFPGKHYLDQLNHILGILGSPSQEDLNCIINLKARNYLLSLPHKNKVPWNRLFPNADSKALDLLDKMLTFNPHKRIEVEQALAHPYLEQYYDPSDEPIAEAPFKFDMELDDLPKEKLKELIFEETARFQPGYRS
# MCM7, P33993, UniProt P33993, whole entry: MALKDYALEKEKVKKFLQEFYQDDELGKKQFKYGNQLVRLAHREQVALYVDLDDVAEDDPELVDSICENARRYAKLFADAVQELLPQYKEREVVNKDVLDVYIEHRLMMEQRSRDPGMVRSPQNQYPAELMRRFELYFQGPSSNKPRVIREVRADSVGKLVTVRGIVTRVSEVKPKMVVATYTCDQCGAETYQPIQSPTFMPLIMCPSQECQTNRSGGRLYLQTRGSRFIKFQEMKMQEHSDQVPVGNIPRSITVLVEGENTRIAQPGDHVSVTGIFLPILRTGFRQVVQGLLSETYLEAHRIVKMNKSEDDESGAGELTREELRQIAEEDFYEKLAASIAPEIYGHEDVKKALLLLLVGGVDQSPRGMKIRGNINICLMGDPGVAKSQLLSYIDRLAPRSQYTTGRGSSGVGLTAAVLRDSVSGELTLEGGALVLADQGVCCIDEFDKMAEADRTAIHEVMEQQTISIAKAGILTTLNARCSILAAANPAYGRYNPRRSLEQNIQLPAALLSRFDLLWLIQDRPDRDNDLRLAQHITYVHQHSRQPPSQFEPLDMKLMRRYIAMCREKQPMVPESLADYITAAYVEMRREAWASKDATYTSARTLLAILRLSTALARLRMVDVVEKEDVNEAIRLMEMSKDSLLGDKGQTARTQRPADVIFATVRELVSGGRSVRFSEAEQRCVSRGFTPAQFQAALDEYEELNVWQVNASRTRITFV
# MORF4L1, Q9UBU8, UniProt Q9UBU8, whole entry: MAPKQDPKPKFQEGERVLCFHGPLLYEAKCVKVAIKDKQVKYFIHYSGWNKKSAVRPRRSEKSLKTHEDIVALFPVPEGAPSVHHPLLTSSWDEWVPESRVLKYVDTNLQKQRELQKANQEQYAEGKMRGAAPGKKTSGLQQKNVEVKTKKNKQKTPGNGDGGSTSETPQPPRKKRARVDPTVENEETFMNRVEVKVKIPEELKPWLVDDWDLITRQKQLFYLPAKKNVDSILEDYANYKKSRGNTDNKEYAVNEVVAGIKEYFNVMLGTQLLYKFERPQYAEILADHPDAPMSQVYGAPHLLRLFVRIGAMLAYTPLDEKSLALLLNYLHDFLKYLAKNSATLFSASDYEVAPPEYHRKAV
# MORF4L2, Q15014, UniProt Q15014, whole entry: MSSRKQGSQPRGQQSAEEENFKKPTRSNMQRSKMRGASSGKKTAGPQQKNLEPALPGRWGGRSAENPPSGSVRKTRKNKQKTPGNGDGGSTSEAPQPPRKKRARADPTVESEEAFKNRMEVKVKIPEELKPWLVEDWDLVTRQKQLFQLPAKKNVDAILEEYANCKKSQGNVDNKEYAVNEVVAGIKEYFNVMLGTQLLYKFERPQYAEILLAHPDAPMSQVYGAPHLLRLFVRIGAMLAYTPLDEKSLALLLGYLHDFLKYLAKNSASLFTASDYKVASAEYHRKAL
# MPG, P29372, UniProt P29372, whole entry: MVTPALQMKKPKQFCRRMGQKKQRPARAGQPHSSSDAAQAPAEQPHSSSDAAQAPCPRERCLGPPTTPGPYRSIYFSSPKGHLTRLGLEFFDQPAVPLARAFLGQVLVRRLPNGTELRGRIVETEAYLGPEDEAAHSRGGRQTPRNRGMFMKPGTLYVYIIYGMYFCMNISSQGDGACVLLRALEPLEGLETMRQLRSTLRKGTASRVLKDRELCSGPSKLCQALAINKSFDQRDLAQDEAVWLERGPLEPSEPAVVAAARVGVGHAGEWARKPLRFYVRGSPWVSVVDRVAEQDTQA
# MTHFD1L, Q6UB35, UniProt Q6UB35, whole entry: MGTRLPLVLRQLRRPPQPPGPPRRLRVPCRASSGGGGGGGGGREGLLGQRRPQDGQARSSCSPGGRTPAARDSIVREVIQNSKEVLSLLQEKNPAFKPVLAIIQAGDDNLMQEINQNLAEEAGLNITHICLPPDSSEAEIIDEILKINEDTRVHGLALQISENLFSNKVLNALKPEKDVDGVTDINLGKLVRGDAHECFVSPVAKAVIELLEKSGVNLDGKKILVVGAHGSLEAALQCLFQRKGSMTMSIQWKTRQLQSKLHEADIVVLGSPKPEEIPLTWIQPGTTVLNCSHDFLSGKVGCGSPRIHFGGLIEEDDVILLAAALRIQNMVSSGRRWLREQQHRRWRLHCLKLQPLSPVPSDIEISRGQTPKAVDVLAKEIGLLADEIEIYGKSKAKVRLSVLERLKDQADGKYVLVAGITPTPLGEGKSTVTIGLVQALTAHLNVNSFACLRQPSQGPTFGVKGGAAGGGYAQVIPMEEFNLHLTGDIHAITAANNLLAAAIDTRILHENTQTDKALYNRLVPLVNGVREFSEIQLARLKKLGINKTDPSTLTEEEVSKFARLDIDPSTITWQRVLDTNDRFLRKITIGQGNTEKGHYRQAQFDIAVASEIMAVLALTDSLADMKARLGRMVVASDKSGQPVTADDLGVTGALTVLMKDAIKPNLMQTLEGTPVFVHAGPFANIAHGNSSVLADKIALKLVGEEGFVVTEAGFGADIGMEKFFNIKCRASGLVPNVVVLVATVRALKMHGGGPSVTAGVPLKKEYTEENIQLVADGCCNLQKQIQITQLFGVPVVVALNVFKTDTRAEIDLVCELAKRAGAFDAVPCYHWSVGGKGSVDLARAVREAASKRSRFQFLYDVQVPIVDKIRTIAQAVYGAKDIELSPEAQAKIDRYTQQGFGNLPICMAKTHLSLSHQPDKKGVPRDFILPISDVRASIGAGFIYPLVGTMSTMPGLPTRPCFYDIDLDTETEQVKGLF
# NUDT21, O43809, UniProt O43809, whole entry: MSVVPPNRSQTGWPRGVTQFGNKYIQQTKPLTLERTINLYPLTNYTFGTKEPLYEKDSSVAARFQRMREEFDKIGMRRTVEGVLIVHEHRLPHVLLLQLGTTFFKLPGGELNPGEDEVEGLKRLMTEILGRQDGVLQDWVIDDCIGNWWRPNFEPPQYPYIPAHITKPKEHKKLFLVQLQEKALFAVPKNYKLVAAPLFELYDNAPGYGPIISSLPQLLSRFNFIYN
# NUP153, P49790, UniProt P49790, whole entry: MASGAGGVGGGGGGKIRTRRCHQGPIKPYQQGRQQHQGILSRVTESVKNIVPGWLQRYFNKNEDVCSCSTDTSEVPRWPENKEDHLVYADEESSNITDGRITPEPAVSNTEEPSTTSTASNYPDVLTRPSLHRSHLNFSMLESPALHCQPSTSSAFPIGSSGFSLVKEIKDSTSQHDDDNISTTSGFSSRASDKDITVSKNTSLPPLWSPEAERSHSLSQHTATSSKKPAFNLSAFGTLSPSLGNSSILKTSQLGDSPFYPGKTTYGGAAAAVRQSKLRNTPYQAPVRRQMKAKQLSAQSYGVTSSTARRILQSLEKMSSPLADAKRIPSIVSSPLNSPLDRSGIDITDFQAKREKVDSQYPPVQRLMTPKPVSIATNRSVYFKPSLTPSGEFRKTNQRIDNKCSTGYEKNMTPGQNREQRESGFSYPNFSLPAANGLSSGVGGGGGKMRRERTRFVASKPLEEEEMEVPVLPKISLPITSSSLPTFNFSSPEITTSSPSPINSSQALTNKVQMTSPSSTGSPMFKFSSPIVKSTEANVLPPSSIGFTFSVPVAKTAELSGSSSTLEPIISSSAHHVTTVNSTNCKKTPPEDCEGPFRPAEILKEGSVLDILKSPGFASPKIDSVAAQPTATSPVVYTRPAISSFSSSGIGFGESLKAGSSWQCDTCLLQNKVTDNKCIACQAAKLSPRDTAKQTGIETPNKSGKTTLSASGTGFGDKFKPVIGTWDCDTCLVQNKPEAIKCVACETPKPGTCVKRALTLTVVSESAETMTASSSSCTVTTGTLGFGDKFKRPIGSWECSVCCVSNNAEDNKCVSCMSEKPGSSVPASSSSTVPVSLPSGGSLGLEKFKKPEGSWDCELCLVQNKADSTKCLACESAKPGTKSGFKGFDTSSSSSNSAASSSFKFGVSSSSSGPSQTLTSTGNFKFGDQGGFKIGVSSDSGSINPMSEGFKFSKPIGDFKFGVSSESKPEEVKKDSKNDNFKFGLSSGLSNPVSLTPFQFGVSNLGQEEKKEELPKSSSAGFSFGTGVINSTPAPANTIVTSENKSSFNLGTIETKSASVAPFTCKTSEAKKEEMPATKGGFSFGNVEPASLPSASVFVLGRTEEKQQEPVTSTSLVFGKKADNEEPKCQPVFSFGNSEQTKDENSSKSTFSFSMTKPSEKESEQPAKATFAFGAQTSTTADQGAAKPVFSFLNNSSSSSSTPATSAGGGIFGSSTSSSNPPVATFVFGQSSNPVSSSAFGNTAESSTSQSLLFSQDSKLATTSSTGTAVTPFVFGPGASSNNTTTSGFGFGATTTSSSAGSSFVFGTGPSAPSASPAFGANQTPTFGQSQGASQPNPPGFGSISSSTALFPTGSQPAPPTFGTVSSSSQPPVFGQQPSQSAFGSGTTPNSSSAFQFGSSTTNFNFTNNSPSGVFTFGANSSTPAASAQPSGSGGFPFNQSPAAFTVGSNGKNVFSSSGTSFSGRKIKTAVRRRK
# ± gives the standard deviation of the averaged measurements. The list shows a part of the results. Only hits are listed; about a third recur on repeated control peptides.
# Tests used:
# Assay in all cases: PRISMA enrichment of interactor (LFQ) in peptide spot vs all other peptide spots (log2 fold change); higher = stronger / more specific binding of the interactor to the peptide
# HMGB2, P26583 = molecular target: HMGB2, P26583
# Description: (§1)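 PRISMA: 221 full-length sORF-encoded peptides (3-15 aa), plus SOS1/GLUT1 control peptides, were spot-synthesized on cellulose membranes in triplicate. Membranes were incubated with HEK293T lysate, and bound proteins were identified by LC-MS/MS with LFQ. Enrichment is the log2 fold change versus all other peptide spots; only significant interactors are listed (cutoff c=6, x0=2.8).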
# HNRNPA0, Q13151 = molecular target: HNRNPA0, Q13151
# Description: as §1
# HNRNPA1, P09651 = molecular target: HNRNPA1, P09651
# Description: as §1
# HNRNPA3, P51991 = molecular target: HNRNPA3, P51991
# Description: as §1
# HOMER1, Q86YM7 = molecular target: HOMER1, Q86YM7
# Description: as §1
# IBA57, Q5T440 = molecular target: IBA57, Q5T440
# Description: as §1
# INCENP, Q9NQS7 = molecular target: INCENP, Q9NQS7
# Description: as §1
# ISCU, Q9H1K1 = molecular target: ISCU, Q9H1K1
# Description: as §1
# KHDRBS1, Q07666 = molecular target: KHDRBS1, Q07666
# Description: as §1
# KHSRP, Q92945 = molecular target: KHSRP, Q92945
# Description: as §1
# KIF2A, O00139 = molecular target: KIF2A, O00139
# Description: as §1
# KIF2C, Q99661 = molecular target: KIF2C, Q99661
# Description: as §1
# KIF4A, O95239 = molecular target: KIF4A, O95239
# Description: as §1
# LENG1, Q96BZ8 = molecular target: LENG1, Q96BZ8
# Description: as §1
# LRPAP1, P30533 = molecular target: LRPAP1, P30533
# Description: as §1
# LSM14A, Q8ND56 = molecular target: LSM14A, Q8ND56
# Description: as §1
# LSM14B, Q9BX40 = molecular target: LSM14B, Q9BX40
# Description: as §1
# MAPK1, P28482 = molecular target: MAPK1, P28482
# Description: as §1
# MAZ, P56270 = molecular target: MAZ, P56270
# Description: as §1
# MBNL1, Q9NR56 = molecular target: MBNL1, Q9NR56
# Description: as §1
# MCCC2, Q9HCC0 = molecular target: MCCC2, Q9HCC0
# Description: as §1
# MCM3, P25205 = molecular target: MCM3, P25205
# Description: as §1
# MCM5, P33992 = molecular target: MCM5, P33992
# Description: as §1
# MCM7, P33993 = molecular target: MCM7, P33993
# Description: as §1
# MED12, Q93074 = molecular target: MED12, Q93074
# Description: as §1
# MED15, Q96RN5 = molecular target: MED15, Q96RN5
# Description: as §1
# MORF4L1, Q9UBU8 = molecular target: MORF4L1, Q9UBU8
# Description: as §1
# MORF4L2, Q15014 = molecular target: MORF4L2, Q15014
# Description: as §1
# MPG, P29372 = molecular target: MPG, P29372
# Description: as §1
# MTHFD1L, Q6UB35 = molecular target: MTHFD1L, Q6UB35
# Description: as §1
# MTREX, P42285 = molecular target: MTREX, P42285
# Description: as §1
# NDUFAF7, Q7L592 = molecular target: NDUFAF7, Q7L592
# Description: as §1
# NIFK, Q9BYG3 = molecular target: NIFK, Q9BYG3
# Description: as §1
# NMD3, Q96D46 = molecular target: NMD3, Q96D46
# Description: as §1
# NME4, O00746 = molecular target: NME4, O00746
# Description: as §1
# NOL10, Q9BSC4 = molecular target: NOL10, Q9BSC4
# Description: as §1
# [1] = substrate: NONO, Q15233
# Description: as §1
# [2] = substrate: NOSIP, Q9Y314
# Description: as §1
# NTHL1, P78549 = molecular target: NTHL1, P78549
# Description: as §1
# NUDT16, Q96DE0 = molecular target: NUDT16, Q96DE0
# Description: as §1
# NUDT16L1, Q9BRJ7 = molecular target: NUDT16L1, Q9BRJ7
# Description: as §1
# NUDT21, O43809 = molecular target: NUDT21, O43809
# Description: as §1
# NUFIP2, Q7Z417 = molecular target: NUFIP2, Q7Z417
# Description: as §1
# NUP153, P49790 = molecular target: NUP153, P49790
# Description: as §1
# NUSAP1, Q9BXS6 = molecular target: NUSAP1, Q9BXS6
# Description: as §1
binder,measurement,setting,value
MVDNFYF [ASPN],PRISMA enrichment of interactor (log2),"HMGB2, P26583",4.44
same,PRISMA enrichment of interactor (log2),"HNRNPA0, Q13151",5.34
same,PRISMA enrichment of interactor (log2),"HNRNPA1, P09651",5.12
same,PRISMA enrichment of interactor (log2),"HNRNPA3, P51991",5.05
same,PRISMA enrichment of interactor (log2),"HOMER1, Q86YM7",5.9
same,PRISMA enrichment of interactor (log2),"IBA57, Q5T440",6.73
same,PRISMA enrichment of interactor (log2),"INCENP, Q9NQS7",3.76
same,PRISMA enrichment of interactor (log2),"ISCU, Q9H1K1",5.26
same,PRISMA enrichment of interactor (log2),"KHDRBS1, Q07666",5.37
same,PRISMA enrichment of interactor (log2),"KHSRP, Q92945",5.2
same,PRISMA enrichment of interactor (log2),"KIF2A, O00139",4.88
same,PRISMA enrichment of interactor (log2),"KIF2C, Q99661",5.92
same,PRISMA enrichment of interactor (log2),"KIF4A, O95239",5.18
same,PRISMA enrichment of interactor (log2),"LENG1, Q96BZ8",3.93
same,PRISMA enrichment of interactor (log2),"LRPAP1, P30533",5.78
same,PRISMA enrichment of interactor (log2),"LSM14A, Q8ND56",5.73
same,PRISMA enrichment of interactor (log2),"LSM14B, Q9BX40",3.93
same,PRISMA enrichment of interactor (log2),"MAPK1, P28482",4.83
same,PRISMA enrichment of interactor (log2),"MAZ, P56270",5.64 ± 1.8
same,PRISMA enrichment of interactor (log2),"MBNL1, Q9NR56",5.83
same,PRISMA enrichment of interactor (log2),"MCCC2, Q9HCC0",4.6
same,PRISMA enrichment of interactor (log2),"MCM3, P25205",5.95
same,PRISMA enrichment of interactor (log2),"MCM5, P33992",6.45
same,PRISMA enrichment of interactor (log2),"MCM7, P33993",4.7
same,PRISMA enrichment of interactor (log2),"MED12, Q93074",4.07
same,PRISMA enrichment of interactor (log2),"MED15, Q96RN5",4.68
same,PRISMA enrichment of interactor (log2),"MORF4L1, Q9UBU8",4.23
same,PRISMA enrichment of interactor (log2),"MORF4L2, Q15014",6.45
same,PRISMA enrichment of interactor (log2),"MPG, P29372",6.56
same,PRISMA enrichment of interactor (log2),"MTHFD1L, Q6UB35",4.64
same,PRISMA enrichment of interactor (log2),"MTREX, P42285",4.37
same,PRISMA enrichment of interactor (log2),"NDUFAF7, Q7L592",4.76
same,PRISMA enrichment of interactor (log2),"NIFK, Q9BYG3",4.68
same,PRISMA enrichment of interactor (log2),"NMD3, Q96D46",6.24
same,PRISMA enrichment of interactor (log2),"NME4, O00746",6.24
same,PRISMA enrichment of interactor (log2),"NOL10, Q9BSC4",5.34
same,PRISMA enrichment of interactor (log2),[1],6.52
same,PRISMA enrichment of interactor (log2),[2],7.09
same,PRISMA enrichment of interactor (log2),"NTHL1, P78549",4.43
same,PRISMA enrichment of interactor (log2),"NUDT16, Q96DE0",4.56
same,PRISMA enrichment of interactor (log2),"NUDT16L1, Q9BRJ7",5.64
same,PRISMA enrichment of interactor (log2),"NUDT21, O43809",4.9
same,PRISMA enrichment of interactor (log2),"NUFIP2, Q7Z417",5.86
same,PRISMA enrichment of interactor (log2),"NUP153, P49790",5.47
same,PRISMA enrichment of interactor (log2),"NUSAP1, Q9BXS6",6.02

# Reformatted with bars between the fields: entries from further up.
binder | measurement | setting | value
MVDNFYF [ASPN] | PRISMA enrichment of interactor (log2) | ISCU, Q9H1K1 | 5.26
same | PRISMA enrichment of interactor (log2) | KIF2C, Q99661 | 5.92
same | PRISMA enrichment of interactor (log2) | KIF4A, O95239 | 5.18
same | PRISMA enrichment of interactor (log2) | MAPK1, P28482 | 4.83
same | PRISMA enrichment of interactor (log2) | MAZ, P56270 | 5.64 ± 1.8
same | PRISMA enrichment of interactor (log2) | MCCC2, Q9HCC0 | 4.6
same | PRISMA enrichment of interactor (log2) | MORF4L2, Q15014 | 6.45
same | PRISMA enrichment of interactor (log2) | NIFK, Q9BYG3 | 4.68
same | PRISMA enrichment of interactor (log2) | [2] | 7.09
same | PRISMA enrichment of interactor (log2) | NUSAP1, Q9BXS6 | 6.02
